Assay results: doi:10.1101/615138
These are yes or no findings as the source states them, for the method shown. Where a sequence is shown, tags or fusion partners need not be part of it.

Target: T1, SNAP-PD-L2-His (ectodomain of human PD-L2, aa 20–220) (human) (UniProt Q9BQ51)
T1 sequence (chain, SNAP-Cell 505 (SC505) on the SNAP-tag): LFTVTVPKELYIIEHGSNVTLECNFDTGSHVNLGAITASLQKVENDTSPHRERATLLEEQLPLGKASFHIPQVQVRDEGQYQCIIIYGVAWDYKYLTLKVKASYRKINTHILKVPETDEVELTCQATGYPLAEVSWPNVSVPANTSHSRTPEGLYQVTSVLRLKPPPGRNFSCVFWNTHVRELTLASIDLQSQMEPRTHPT
Experiment: FRET or BRET

SNAP-CD80-His (ectodomain of human CD80, aa 35–242) (from UniProt P33681 35-242) (domain or fragment)
binding: no binding
